The source of these data is article PMC8596765 (Clinical Pharmacology in Drug Development, 2021).

For series [1] the following is noted: cited from earlier work.
The nature of series [2]: clinical. To be noted: human, plasma, po, 10 mg.

For orientation: Cmax means the highest concentration seen after dosing.

`CC(C)c1c(C(=O)Nc2ccccc2)c(-c2ccccc2)c(-c2ccc(F)cc2)n1CC[C@@H](O)C[C@@H](O)CC(=O)O` [atorvastatin]: the “Intrasubject variability in plasma exposures” value in series [1] is roughly 45%. In series [2], this molecule came in with a Cmax of 1.67 ± 0.828 ng/mL.
